Laboratory results: article PMC6662813
These are yes or no findings as the source states them, for the method shown. Binding seen in cells or lysates may run through a third protein. Some results given as binding are weak or reduced against the parent protein; the word gives no strength.

Target: cMyc-cRaf (mouse) (UniProt Q99N57)
Experiment: co-IP; HEK293T expressing Flag-Crabp1-HA and cMyc-cRaf, with or without atRA for 15 min; lysates precipitated with anti-cMyc antibody; western blot

binding: binds
B1: Kinase suppressor of Ras (Ksr1), endogenous in HEK293T (protein, UniProt Q8IVT5 1-923)
chain: MDRAALRAAAMGEKKEGGGGGDAAAAEGGAGAAASRALQQCGQLQKLIDISIGSLRGLRTKCAVSNDLTQQEIRTLEAKLVRYICKQRQCKLSVAPGERTPELNSYPRFSDWLYTFNVRPEVVQEIPRDLTLDALLEMNEAKVKETLRRCGASGDECGRLQYALTCLRKVTGLGGEHKEDSSWSSLDARRESGSGPSTDTLSAASLPWPPGSSQLGRAGNSAQGPRSISVSALPASDSPTPSFSEGLSDTCIPLHASGRLTPRALHSFITPPTTPQLRRHTKLKPPRTPPPPSRKVFQLLPSFPTLTRSKSHESQLGNRIDDVSSMRFDLSHGSPQMVRRDIGLSVTHRFSTKSWLSQVCHVCQKSMIFGVKCKHCRLKCHNKCTKEAPACRISFLPLTRLRRTESVPSDINNPVDRAAEPHFGTLPKALTKKEHPPAMNHLDSSSNPSSTTSSTPSSPAPFPTSSNPSSATTPPNPSPGQRDSRFNFPAAYFIHHRQQFIFPVPSAGHCWKCLLIAESLKENAFNISAFAHAAPLPEAADGTRLDDQPKADVLEAHEAEAEEPEAGKSEAEDDEDEVDDLPSSRRPWRGPISRKASQTSVYLQEWDIPFEQVELGEPIGQGRWGRVHRGRWHGEVAIRLLEMDGHNQDHLKLFKKEVMNYRQTRHENVVLFMGACMNPPHLAIITSFCKGRTLHSFVRDPKTSLDINKTRQIAQEIIKGMGYLHAKGIVHKDLKSKNVFYDNGKVVITDFGLFGISGVVREGRRENQLKLSHDWLCYLAPEIVREMTPGKDEDQLPFSKAADVYAFGTVWYELQARDWPLKNQAAEASIWQIGSGEGMKRVLTSVSLGKEVSEILSACWAFDLQERPSFSLLMDMLEKLPKLNRRLSHPGHFWKSADINSSKVVPRFERFGLGVLESSNPKM
